Where “and” joins values, the source holds several entries; their conditions need not be identical. Identical values can stand only once. Inconclusive means that the source gave no clear call. Such entries were picked first, then a sample of the others. A potency beside an inconclusive call is a rough fit, not a confirmed value. Where a structure was tested more than once in an assay, its records may differ in their call. Calls of active or inactive are those of the source. The calls were made as follows: active = hit-call score of the fitted dose curve at least 0.9, where 1 is the maximum; inconclusive = response in the unintended direction; inactive = score below 0.9.
Legend:
[1] = biological target: Peroxisome proliferator-activated receptor gamma (Homo sapiens) (UniProt P37231); assay: ATG_PPARg_TRANS: Attagene TRANS-FACTORIAL HepG2 Assay for human Peroxisome Proliferator-activated Receptor-gamma (PPARg) (AID 2283007)
In short: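 Multiplexed reporter transcription units in HepG2, 24 h dosing, reporter transcripts quantified by fluorescent RT-PCR and capillary electrophoresis. Increase over DMSO scored.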

Amino acid sequences for entries named in this document (tags omitted). A change or cut given only in a name is not applied to a line headed by its entry.
UniProt P37231: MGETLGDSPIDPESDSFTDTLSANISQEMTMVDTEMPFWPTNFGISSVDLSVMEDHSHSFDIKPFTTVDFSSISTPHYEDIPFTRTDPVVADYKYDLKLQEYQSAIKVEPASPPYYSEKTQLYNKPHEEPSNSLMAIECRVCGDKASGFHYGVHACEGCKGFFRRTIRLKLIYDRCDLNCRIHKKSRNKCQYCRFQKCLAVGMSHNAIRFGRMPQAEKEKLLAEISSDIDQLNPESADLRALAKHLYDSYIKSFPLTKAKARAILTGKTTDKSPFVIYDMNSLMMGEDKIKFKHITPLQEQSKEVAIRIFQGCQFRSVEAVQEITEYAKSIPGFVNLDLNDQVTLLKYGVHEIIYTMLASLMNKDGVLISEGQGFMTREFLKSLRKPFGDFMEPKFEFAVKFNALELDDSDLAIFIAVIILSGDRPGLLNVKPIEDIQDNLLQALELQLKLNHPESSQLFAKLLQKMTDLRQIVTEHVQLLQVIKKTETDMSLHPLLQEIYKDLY
UniProt Q92753: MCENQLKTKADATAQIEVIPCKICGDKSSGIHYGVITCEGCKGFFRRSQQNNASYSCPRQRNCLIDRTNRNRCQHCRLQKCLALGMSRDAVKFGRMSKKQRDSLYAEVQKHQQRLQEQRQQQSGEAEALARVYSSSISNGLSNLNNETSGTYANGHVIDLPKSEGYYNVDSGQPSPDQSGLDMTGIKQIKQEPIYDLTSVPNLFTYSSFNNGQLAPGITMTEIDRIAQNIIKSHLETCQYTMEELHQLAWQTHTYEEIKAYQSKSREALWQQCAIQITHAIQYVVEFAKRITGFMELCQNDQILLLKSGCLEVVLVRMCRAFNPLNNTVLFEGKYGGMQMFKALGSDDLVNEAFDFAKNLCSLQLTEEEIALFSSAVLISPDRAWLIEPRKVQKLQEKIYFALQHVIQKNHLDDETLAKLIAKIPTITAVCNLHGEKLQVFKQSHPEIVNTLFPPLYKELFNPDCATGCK
UniProt P51449: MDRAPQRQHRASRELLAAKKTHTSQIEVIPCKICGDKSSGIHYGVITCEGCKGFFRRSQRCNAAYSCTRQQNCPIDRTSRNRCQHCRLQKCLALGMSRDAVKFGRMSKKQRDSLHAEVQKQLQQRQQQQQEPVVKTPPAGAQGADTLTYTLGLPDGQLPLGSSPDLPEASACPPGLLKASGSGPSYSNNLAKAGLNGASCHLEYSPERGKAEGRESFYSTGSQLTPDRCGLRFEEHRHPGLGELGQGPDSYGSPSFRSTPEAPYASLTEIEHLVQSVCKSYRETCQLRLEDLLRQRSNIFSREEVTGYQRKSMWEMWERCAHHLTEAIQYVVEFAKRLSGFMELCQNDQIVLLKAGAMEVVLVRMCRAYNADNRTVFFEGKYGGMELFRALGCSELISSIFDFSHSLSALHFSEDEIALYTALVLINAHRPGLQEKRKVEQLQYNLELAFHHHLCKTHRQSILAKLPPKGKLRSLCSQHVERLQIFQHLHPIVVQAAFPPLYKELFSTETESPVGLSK
UniProt P28702: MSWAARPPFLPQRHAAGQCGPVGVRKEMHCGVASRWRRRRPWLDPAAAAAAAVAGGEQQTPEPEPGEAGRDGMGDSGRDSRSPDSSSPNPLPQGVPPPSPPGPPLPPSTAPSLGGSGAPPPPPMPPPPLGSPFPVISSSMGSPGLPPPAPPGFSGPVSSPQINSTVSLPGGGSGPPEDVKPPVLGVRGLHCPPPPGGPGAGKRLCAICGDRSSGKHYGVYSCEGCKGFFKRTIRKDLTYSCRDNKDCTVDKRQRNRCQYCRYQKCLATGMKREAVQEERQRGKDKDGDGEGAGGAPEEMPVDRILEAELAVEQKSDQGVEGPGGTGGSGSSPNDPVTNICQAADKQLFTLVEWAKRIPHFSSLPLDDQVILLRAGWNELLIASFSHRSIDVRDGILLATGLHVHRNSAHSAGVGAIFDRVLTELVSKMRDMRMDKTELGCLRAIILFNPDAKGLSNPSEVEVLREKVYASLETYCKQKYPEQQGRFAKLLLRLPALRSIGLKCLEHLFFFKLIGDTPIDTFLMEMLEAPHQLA
UniProt P10827: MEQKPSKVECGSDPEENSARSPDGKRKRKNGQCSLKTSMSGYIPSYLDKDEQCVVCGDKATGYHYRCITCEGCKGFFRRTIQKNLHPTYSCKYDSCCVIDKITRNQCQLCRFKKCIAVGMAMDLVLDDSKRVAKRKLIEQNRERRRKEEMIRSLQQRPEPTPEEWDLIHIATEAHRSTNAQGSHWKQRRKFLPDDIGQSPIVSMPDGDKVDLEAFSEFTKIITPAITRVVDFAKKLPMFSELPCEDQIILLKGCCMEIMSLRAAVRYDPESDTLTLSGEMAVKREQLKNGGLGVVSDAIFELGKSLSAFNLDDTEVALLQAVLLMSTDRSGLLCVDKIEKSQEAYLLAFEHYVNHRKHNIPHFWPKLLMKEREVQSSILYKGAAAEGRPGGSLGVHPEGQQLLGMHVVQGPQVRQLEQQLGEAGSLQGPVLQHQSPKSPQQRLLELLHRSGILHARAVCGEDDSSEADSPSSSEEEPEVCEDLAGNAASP
UniProt P11473: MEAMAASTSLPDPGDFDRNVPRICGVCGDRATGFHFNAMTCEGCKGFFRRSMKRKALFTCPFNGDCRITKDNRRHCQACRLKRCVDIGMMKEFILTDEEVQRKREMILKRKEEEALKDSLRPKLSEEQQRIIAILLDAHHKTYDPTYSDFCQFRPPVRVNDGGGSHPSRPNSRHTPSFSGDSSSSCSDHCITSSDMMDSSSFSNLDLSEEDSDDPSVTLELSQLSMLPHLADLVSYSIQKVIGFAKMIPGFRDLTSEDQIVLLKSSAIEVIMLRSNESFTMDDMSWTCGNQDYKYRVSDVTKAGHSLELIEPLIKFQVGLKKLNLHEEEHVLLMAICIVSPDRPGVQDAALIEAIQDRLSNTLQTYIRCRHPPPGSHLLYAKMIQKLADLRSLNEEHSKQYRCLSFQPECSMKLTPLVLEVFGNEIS
UniProt P11511: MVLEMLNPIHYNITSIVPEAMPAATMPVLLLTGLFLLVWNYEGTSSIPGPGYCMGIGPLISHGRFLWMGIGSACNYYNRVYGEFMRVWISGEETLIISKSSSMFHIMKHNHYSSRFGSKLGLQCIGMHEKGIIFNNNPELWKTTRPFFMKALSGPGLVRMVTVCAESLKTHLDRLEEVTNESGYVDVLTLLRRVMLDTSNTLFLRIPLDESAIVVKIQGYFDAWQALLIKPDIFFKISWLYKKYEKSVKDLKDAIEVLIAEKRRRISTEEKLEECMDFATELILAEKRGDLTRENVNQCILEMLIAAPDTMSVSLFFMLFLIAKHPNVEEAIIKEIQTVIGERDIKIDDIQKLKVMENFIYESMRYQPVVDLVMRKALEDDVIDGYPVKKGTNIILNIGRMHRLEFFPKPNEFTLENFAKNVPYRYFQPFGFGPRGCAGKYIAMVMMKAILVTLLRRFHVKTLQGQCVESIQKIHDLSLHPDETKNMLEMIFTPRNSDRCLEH
UniProt P19793: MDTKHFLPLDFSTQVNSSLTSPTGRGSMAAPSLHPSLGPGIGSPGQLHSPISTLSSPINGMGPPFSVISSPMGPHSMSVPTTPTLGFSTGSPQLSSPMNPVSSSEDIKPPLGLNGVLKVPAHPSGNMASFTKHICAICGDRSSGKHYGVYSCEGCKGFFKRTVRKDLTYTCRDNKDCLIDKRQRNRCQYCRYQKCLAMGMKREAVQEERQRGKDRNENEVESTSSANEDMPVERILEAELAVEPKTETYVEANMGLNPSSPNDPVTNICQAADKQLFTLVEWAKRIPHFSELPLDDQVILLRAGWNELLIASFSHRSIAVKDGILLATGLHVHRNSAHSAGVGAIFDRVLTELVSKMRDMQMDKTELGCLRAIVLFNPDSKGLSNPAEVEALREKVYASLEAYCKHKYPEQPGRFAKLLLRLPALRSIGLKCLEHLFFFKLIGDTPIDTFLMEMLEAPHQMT
UniProt O75469: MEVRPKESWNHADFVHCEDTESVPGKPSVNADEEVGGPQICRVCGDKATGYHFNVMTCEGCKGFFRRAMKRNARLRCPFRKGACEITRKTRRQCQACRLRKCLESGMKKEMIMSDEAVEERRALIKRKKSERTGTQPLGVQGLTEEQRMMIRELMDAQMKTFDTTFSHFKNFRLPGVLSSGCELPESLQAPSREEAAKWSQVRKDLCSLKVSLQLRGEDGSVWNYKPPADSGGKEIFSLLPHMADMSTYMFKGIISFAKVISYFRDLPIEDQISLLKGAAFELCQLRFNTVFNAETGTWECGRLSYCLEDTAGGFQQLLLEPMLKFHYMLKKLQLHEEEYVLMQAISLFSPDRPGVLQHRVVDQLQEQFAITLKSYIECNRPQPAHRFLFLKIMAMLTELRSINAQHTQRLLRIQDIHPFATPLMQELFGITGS
UniProt P13631, whole entry, looked up: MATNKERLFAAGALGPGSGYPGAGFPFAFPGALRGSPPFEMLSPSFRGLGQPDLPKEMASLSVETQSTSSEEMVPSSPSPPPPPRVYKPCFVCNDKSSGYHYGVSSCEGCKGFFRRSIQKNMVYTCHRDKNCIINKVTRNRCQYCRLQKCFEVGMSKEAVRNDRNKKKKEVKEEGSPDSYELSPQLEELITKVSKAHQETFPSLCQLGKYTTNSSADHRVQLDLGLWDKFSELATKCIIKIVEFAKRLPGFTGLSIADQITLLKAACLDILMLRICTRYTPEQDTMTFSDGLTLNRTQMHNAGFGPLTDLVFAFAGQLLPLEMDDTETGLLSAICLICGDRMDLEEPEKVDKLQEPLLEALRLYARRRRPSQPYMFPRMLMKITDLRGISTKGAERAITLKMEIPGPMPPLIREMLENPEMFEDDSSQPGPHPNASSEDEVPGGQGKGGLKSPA

[2] = biological target: human RAR-related Orphan Receptor beta (RORb), RORB (gene 6096) (UniProt Q92753); assay: ATG_RORb_TRANS: Attagene TRANS-FACTORIAL HepG2 Assay for human RAR-related Orphan Receptor beta (RORb) (AID 2283010);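 as to AC50: potency for increased reporter mRNA meaning activation of RORb-Gal4 chimera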
In short: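 Readout is reporter-gene mRNA induction, detected as fluorescence after RT-PCR and capillary electrophoresis, fitted for gain of signal against DMSO controls. Transiently transfected HepG2 liver cells carrying GAL4-UAS reporter constructs were treated for 24 hours.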

[3] = biological target: human RAR-related Orphan Receptor gamma (RORg), RORC (gene 6097) (UniProt P51449); assay: ATG_RORg_TRANS: Attagene TRANS-FACTORIAL HepG2 Assay for human RAR-related Orphan Receptor gamma (RORg) (AID 2283011);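 as to AC50: potency for induction of reporter transcripts above DMSO so activators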
In short: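 Chimeric RORg-Gal4 transactivation in transfected HepG2; 24 h exposure; RT-PCR/capillary electrophoresis readout of reporter mRNA, DMSO baseline.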

[4] = biological target: human Retinoid X Receptor beta (RXRb), RXRB (gene 6257) (UniProt P28702); assay: ATG_RXRb_TRANS: Attagene TRANS-FACTORIAL HepG2 Assay for human Retinoid X Receptor beta (RXRb) (AID 2283013)
In short: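 Transfect HepG2 with GAL4-UAS multi-reporter constructs (chimeric NR-Gal4, TRANS format); dose compound 24 h; isolate RNA, RT-PCR, FAM primer extension, HpaI digest; quantify by capillary electrophoresis; positive direction vs DMSO.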

[5] = biological target: human Thyroid Receptor alpha (THRa1), THRA (gene 7067) (UniProt P10827); assay: ATG_THRa1_TRANS: Attagene TRANS-FACTORIAL HepG2 Assay for human Thyroid Receptor alpha (THRa1) (AID 2283014)
In short: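 Measured here is mRNA from a GAL4-UAS reporter in transfected HepG2 cells carrying a Gal4-fused receptor, 24 h post-dose. DMSO served as negative control and baseline.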

[6] = biological target: human Vitamin D Receptor (VDR), VDR (gene 7421) (UniProt P11473); assay: ATG_VDR_TRANS: Attagene TRANS-FACTORIAL HepG2 Assay for human Vitamin D Receptor (VDR) (AID 2283022)
In short: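 Multiplexed TRANS reporter in HepG2; 24 h treatment; reporter mRNA by RT-PCR plus capillary electrophoresis; upregulation scored relative to DMSO.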

[7] = biological target: human CYP19A1, CYP19A1 (gene 1588) (UniProt P11511); assay: NVS_ADME_hCYP19A1: NovaScreen (NVS) CYP450-related Enzyme Activity (ADME) Assay for human CYP19A1 (AID 2283098);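 also: potency for inhibitors seen as loss of fluorescent enzyme signal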
In short: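 Biochem, cell-free; recombinant enzyme + specific substrate; fluorescence intensity at 0.5 h post-dose; 10 uM duplicate primary, conc. series for actives; acetonitrile = negative control/baseline; positive and negative controls on every plate.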

[8] = biological target: Retinoic acid receptor RXR-alpha (Homo sapiens) (UniProt P19793); assay: ATG_RXRa_TRANS: Attagene TRANS-FACTORIAL HepG2 Assay for human Retinoid X Receptor alpha (RXRa) (AID 2283012)
In short: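 Transient transfection of human HepG2 with multiple GAL4-UAS reporter constructs; 24 h compound exposure; total RNA isolated, reverse-transcribed, PCR-amplified, 6-FAM labelled, HpaI-cut, resolved by capillary electrophoresis. Positive-direction fit versus DMSO.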

[9] = biological target: Nuclear receptor subfamily 1 group I member 2 (Homo sapiens) (UniProt O75469); assay: ATG_PXR_TRANS: Attagene TRANS-FACTORIAL HepG2 Assay for human Pregnane X Receptor (PXR) (AID 2283008)
In short: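 Measures mRNA induction of a GAL4-UAS-driven reporter in human HepG2 cells transiently expressing PXR fused to Gal4, following 24 h treatment. DMSO served as negative control and baseline.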

[10] = biological target: human Retinoic Acid Receptor gamma (RARg), RARG (gene 5916) (UniProt P13631); assay: ATG_RARg_TRANS: Attagene TRANS-FACTORIAL HepG2 Assay for human Retinoic Acid Receptor gamma (RARg) (AID 2283009);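 as to AC50: AC50 is for reporter induction above DMSO meaning RARg activation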
In short: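 Transient transfection of HepG2 with multi-reporter constructs, then 24 h chemical treatment. Total RNA isolated, reverse-transcribed, PCR-amplified, fluorescently labelled and resolved by capillary electrophoresis; activity scored as mRNA induction versus DMSO.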

## C[Si](C)(C)O[Si](O)(O)O
[1]
  AC50: inconclusive: 33 µM
[2]
  AC50: inconclusive: 100 µM
[3]
  outcome: inactive
[4]
  outcome: inactive
[5]
  AC50: inconclusive: 100 µM

## O=C1CCCCCN1
[1]
  AC50: inconclusive: 100 µM
[2]
  AC50: inconclusive: 24.7 µM
[3]
  outcome: inactive
[4]
  AC50: inconclusive: 100 µM
[5]
  AC50: inconclusive: 0.633 µM
[7]
  AC50: inconclusive: 10 µM

## Cn1c(=O)cc(Oc2ccc(F)cc2F)c2cnc(NCC(C)(C)O)nc21
[1]
  AC50: active: 6.3 µM
[2]
  AC50: inconclusive: 19.8 µM
[3]
  AC50: inconclusive: 13.7 µM
[5]
  outcome: inactive
[6]
  outcome: inactive

## O=S(=O)(O)C(F)(F)C(F)(F)C(F)(F)C(F)(F)C(F)(F)C(F)(F)C(F)(F)F
[1]
  AC50: active: 33.4 µM and active: 33.2 µM
[2]
  outcome: inactive
[8]
  AC50: inconclusive: 0.0136 µM
[4]
  outcome: inactive
[5]
  AC50: inconclusive: 33.4 µM and inconclusive: 50 µM
[6]
  AC50: inconclusive: 33.4 µM and inconclusive: 50 µM

## CN(C)c1ccc(C=O)cc1
[1]
  outcome: inactive
[2]
  AC50: inconclusive: 100 µM
[5]
  outcome: inactive

## CN(N=O)C(=O)N[C@@H]1[C@@H](O)[C@H](O)[C@@H](CO)O[C@@H]1O
[1]
  AC50: inconclusive: 100 µM
[3]
  outcome: inactive
[4]
  AC50: inconclusive: 100 µM

## Nc1nnc(-c2ccc([N+](=O)[O-])o2)o1
[9]
  AC50: inconclusive: 100 µM
[10]
  AC50: inconclusive: 0.841 µM
[2]
  AC50: inconclusive: 100 µM
[3]
  AC50: inconclusive: 166 µM
[8]
  AC50: inconclusive: 100 µM

## CCCCCCOC(=O)c1ccc(O)cc1
[9]
  AC50: active: 25.6 µM
[10]
  outcome: inactive
[2]
  AC50: inconclusive: 56.2 µM
[3]
  AC50: inconclusive: 16.8 µM
[8]
  outcome: inactive
[4]
  AC50: active: 33.4 µM
[5]
  outcome: inactive

## C=CC(=O)OCCC(F)(F)C(F)(F)C(F)(F)C(F)(F)C(F)(F)C(F)(F)F
[9]
  outcome: inactive
[10]
  AC50: inconclusive: 25 µM
[2]
  outcome: inactive
[3]
  outcome: inactive
[8]
  outcome: inactive
[4]
  outcome: inactive

## [Cl][Nd]([Cl])[Cl]
[1]
  AC50: inconclusive: 0.0823 µM
[8]
  AC50: inconclusive: 1.22 µM
[4]
  outcome: inactive
[5]
  outcome: inactive
[6]
  AC50: inconclusive: 1.2 µM

## CCCCCCCCCCN
[9]
  AC50: inconclusive: 56 µM
[10]
  AC50: inconclusive: 56.7 µM

## C[C@@H]1CCN(C(=O)[C@H](CCCN=C(N)N)NS(=O)(=O)c2cccc3c2NC[C@H](C)C3)[C@@H](C(=O)O)C1
[9]
  AC50: inconclusive: 52.5 µM
[10]
  outcome: inactive
[2]
  AC50: inconclusive: 52.5 µM
[3]
  AC50: inconclusive: 0.0432 µM
[8]
  AC50: inconclusive: 52.5 µM
[4]
  AC50: inconclusive: 52.5 µM
[5]
  AC50: inconclusive: 96.6 µM

## OCc1ccccc1
[9]
  AC50: inconclusive: 100 µM and inconclusive: 116 µM
[10]
  AC50: inconclusive: 57.9 µM and inconclusive: 37.6 µM
[2]
  AC50: inconclusive: 174 µM and inconclusive: 116 µM
[3]
  AC50: inconclusive: 116 µM
  outcome: inactive
[8]
  AC50: active: 5.67 µM
[4]
  AC50: inconclusive: 100 µM and active: 1.09 µM

## CC(=O)O[C@@H]1CC2CCC1(C)C2(C)C (some centres undefined)
[9]
  AC50: inconclusive: 100 µM
[10]
  outcome: inactive
[2]
  outcome: inactive
[3]
  AC50: inconclusive: 1.32 µM
[8]
  outcome: inactive
[4]
  AC50: inconclusive: 0.00914 µM
